PubChem BioAssay AID1224826, NIAID | 2016

Aim: 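Knock-downs that raise or lower Tnf reporter signal after endotoxin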 (primary screen)
Cell system: RAW264.7 G9 macrophages from mouse bearing reporters for p65 (GFP) and the Tnf promoter (mCherry)
Knock-down reagent: siRNA pool against mouse genes, 100 nM
Duration: 16 h of LPS stimulation, after 2 days of siRNA transfection
Conditions: bacterial lipopolysaccharide (Salmonella minnesota R595), 10 ng/ml
Read-out: 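Nuclear mCherry signal of the Tnf promoter reporter measured by imaging after background removal, scaled to each plate median and turned into robust z-scores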
Scale: Tnf reporter robust z-score: higher = stronger Tnf promoter reporter signal after LPS
Rule for the call: 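Called active when robust z-score is at most -1.3, matching the median of the Tlr4 knock-down control, or over 3; control wells and wells with under 50 cells never active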
Meaning of the calls: active = Tnf reporter clearly lowered or raised; inactive = no clear change in Tnf reporter
Here is one part, drawn at random, of about 17,000 reagents tested. About 1,110 of them (6.6%) count as active. 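Active means lowered or raised reporter signal; replicate intensities are raw and not normalised per plate.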 Entries without a mark were called inactive. The numbers tell different reagents against one gene apart. Not all columns of the deposit are shown.

Tnf reporter robust z-score	fewer than 50 cells in well	Gene	pool no.
0.04	enough cells in well	Rragd (Ras-related GTP binding D)	1
0.42	enough cells in well	Eif2ak2 (eukaryotic translation initiation factor 2-alpha kinase 2)	1
-0.48	enough cells in well	Rala (Ras like proto-oncogene A)	1
2.14	enough cells in well	Trib2 (tribbles pseudokinase 2)	1
-0.15	enough cells in well	Shc1 (src homology 2 domain-containing transforming protein C1)	1
0.05	enough cells in well	Phyh (phytanoyl-CoA hydroxylase)	1
	fewer than 50 cells per well; well left out of calls	Or10g7 (olfactory receptor family 10 subfamily G member 7)	1
-0.62	enough cells in well	Numa1 (nuclear mitotic apparatus protein 1)	1
1.9	enough cells in well	Vmn1r4 (vomeronasal 1 receptor 4)	1
	fewer than 50 cells per well; well left out of calls	Nek8 (NIMA (never in mitosis gene a)-related expressed kinase 8)	1
2.57	enough cells in well	Dap3 (death associated protein 3)	1
	fewer than 50 cells per well; well left out of calls	Saxo4 (stabilizer of axonemal microtubules 4)	1
-0.5	enough cells in well	Ramp1 (receptor (calcitonin) activity modifying protein 1)	1
0.24	enough cells in well	Fzd1 (frizzled class receptor 1)	1
0.16	enough cells in well	Tspan14 (tetraspanin 14)	1
0.27	enough cells in well	Rap1gap (Rap1 GTPase-activating protein)	1
2.83	enough cells in well	Pop1	1
1.02	enough cells in well	Epor (erythropoietin receptor)	1
-0.56	enough cells in well	Cox6c (cytochrome c oxidase subunit 6C)	1
0.13	enough cells in well	Prdm13 (PR domain containing 13)	1
2.01	enough cells in well	Sprn (shadow of prion protein)	1
-0.13	enough cells in well	Gtpbp2 (GTP binding protein 2)	1
-0.6	enough cells in well	Hip1 (huntingtin interacting protein 1)	1
	fewer than 50 cells per well; well left out of calls	Catsperd (cation channel sperm associated auxiliary subunit delta)	1
-1.18	enough cells in well	Lpgat1 (lysophosphatidylglycerol acyltransferase 1)	1
0.29	enough cells in well	Msh4 (mutS homolog 4)	1
-0.54	enough cells in well	Atp1b2 (ATPase, Na+/K+ transporting, beta 2 polypeptide)	1
0.61	enough cells in well	Socs6 (suppressor of cytokine signaling 6)	1
-1.38 (active)	enough cells in well	Ucp2	1
-0.88	enough cells in well	Drg1 (developmentally regulated GTP binding protein 1)	1
-0.9	enough cells in well	Or14c39 (olfactory receptor family 14 subfamily C member 39)	1
0.75	enough cells in well	E4f1 (E4F transcription factor 1)	1
2.06	enough cells in well	E030011O05Rik (RIKEN cDNA E030011O05 gene)	1
0.77	enough cells in well	Pphln1-ps1 (periphilin 1, pseudogene 1)	1
0.48	enough cells in well	Or10aa3 (olfactory receptor family 10 subfamily AA member 3)	1
2.03	enough cells in well	Slc25a17	1
-1.05	enough cells in well	Slc25a17	2
-0.59	enough cells in well	Mcoln3 (mucolipin 3)	1
1.04	enough cells in well	Dph3 (diphthamine biosynthesis 3)	1
-0.53	enough cells in well	Sh3pxd2b (SH3 and PX domains 2B)	1
